By UniProt entry, the sequences of proteins in these tests, tags left out. Where a name states a change or a piece, a line headed by the entry shows the natural chain unless it says otherwise.
UniProt Q6PAT0: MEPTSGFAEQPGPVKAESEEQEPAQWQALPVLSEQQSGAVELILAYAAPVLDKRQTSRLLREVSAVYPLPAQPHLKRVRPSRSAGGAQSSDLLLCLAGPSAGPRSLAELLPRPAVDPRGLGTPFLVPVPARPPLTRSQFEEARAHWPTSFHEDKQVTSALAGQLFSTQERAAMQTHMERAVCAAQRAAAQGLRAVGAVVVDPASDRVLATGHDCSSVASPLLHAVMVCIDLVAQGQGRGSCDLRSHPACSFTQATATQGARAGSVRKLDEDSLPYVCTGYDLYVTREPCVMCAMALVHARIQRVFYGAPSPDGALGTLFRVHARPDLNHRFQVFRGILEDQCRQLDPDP
UniProt Q6P6J0: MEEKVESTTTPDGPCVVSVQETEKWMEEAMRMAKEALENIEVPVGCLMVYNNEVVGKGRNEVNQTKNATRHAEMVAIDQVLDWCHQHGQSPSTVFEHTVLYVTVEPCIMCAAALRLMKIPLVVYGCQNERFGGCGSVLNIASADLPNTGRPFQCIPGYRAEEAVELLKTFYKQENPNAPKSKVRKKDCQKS

In paper PMC8216470:

Experiments:
[1] = target: mouse ADAT3-V128M (mouse) (UniProt Q6PAT0); experiment: co-expression and co-purification; untagged ADAT2 co-expressed in E. coli BL21(DE3) with His-thioredoxin-ADAT3 (WT or mutant); Talon resin, release by 3C protease overnight at 4°C, HiTrap Q ion exchange, Superdex 200 in 10 mM Tris HCl pH 8.0, 200 mM NaCl, 0.5 mM TCEP
[2] = target: mouse ADAT3-V128I (mouse) (UniProt Q6PAT0); experiment: as above
[3] = target: mouse ADAT3-V128L (mouse) (UniProt Q6PAT0); experiment: as above
[4] = target: mouse ADAT3-V128L (mouse) (UniProt Q6PAT0); experiment: crystal structure; co-expressed, purified complex at 12 mg/ml, sitting drop vapor diffusion; two crystal forms of ADAT2/ADAT3-Δloop (2.1 and 3.0 Å), V128L complex at 2.0 Å; both purified
[5] = target: mouse ADAT3-Δloop (mouse) (UniProt Q6PAT0); experiment: as above

Measured: binding

mouse ADAT2 (from UniProt Q6P6J0 1-191) (enzyme)
binds: [1] | [2] | [3] | [4] | [5]

These are yes or no findings as the source states them, for the method shown. Binding can be weak; no strength is given. For some assays here: Binding seen in cells or lysates may run through a third protein.
